The values below come from patent US20040077547A1, “FVIIa antagonists” (Genentech, Inc., priority 1999, published 2004).

By UniProt entry, the sequences of proteins in these tests, tags left out. Where a name states a change or a piece, a line headed by the entry shows the natural chain unless it says otherwise. Residues count along the entry.
UniProt P08709, residues 61-466: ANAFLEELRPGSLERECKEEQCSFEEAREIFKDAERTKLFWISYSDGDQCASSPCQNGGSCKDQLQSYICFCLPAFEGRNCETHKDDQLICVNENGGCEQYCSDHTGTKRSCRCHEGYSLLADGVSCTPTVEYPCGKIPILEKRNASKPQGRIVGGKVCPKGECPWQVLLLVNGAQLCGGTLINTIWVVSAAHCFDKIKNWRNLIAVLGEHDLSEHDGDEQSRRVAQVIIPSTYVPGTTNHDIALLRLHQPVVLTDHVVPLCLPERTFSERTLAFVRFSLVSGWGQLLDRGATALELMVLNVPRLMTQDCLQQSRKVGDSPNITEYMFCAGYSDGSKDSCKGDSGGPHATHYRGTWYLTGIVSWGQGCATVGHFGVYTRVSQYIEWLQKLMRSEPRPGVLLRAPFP
UniProt P13726: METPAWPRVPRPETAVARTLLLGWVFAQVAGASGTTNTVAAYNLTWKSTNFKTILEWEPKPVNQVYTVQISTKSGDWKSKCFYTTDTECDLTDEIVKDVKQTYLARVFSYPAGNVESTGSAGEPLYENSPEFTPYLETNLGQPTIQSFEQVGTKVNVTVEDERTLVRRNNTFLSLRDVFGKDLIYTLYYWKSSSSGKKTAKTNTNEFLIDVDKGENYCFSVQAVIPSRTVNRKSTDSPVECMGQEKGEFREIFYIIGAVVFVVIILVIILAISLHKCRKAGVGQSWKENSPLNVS

Experiment [1] addresses recombinant human FVIIa (human) (UniProt P08709). Briefly: FVIIa Binding ELISA of FIG. 4, compared with SEQ ID NO: 4. Background: In an ELISA, binding on a coated surface is turned into a signal by an enzyme label.
In experiment [2] the target is covalently active site blocked TF-FVIIa (active site of FVIIa alkylated with biotinylated EGR chloromethylketone) (UniProt P13726). Description: polyvalent phage binding to coated wells.
Experiment [3] deals with recombinant human FVIIa (human) (UniProt P08709). Briefly: polyvalent phage binding to coated wells.
For experiment [4] the target is unchanged. Description: FVIIa Binding ELISA of FIG. 4, compared with TF65 (SEQ ID NO: 4).

No constants are given. Whether binding was seen depends on the method and setting. Some results given as binding are weak or reduced against the parent protein; the word gives no strength.

Regarding EEWEVLCWTWETCERGEG [TF100], the binding entry in experiment [1] was “binds”.
For SAEWEVLCWTWEGCGSVGLV [TF53 peptide-phage (polyvalent phage clone from Pool A bearing …)], the binding result in experiment [2] and in experiment [3] was “binds” each time.
With EEWEVLCWTWETCER [TF183], the binding result in experiment [4] is “binds”.
